Data as given in PubChem BioAssay AID1508597 (Cure First, 2020).
Purpose: 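Knock-downs altering ovarian cancer cell survival with or without PARP inhibitor rucaparib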 (primary screen). System: human ovarian carcinoma lines grown from tumours: OCI-P5x (papillary serous) and OCI-C5x (clear cell). Reagents: siRNA pool against human genes, 1.25 pmol siRNA per well. Duration: 72 h or 96 h, depending on the cell culture. Treatment: rucaparib 20 µM (about IC30) or vehicle, present until read-out. Rucaparib or vehicle: Rucaparib. Cell line: OCI-C5x (clear cell). Measurement: 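Luminescent ATP-based viability assay read 72 or 96 h after transfection, depending on culture, given as normalised percent viability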. Reading the numbers: viability, normalised: higher = more viable cells remaining. Call rule: 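a well counts as a hit if its normalised viability is under 80 percent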. Calls: active = viability under 80%; inactive = viability 80% or more.
This is a random part of the about 2,100 reagents, in one setting of the screen. 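Calls flag viability under 80% in either arm, not effects specific to rucaparib; the reference for percent is not stated.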 A reagent listed more than once was tested more than once; the source does not tell the runs apart. Not given: the 100% reference.

UBN1, technical replicate 1: viability, normalised (%) = 45.9; activity call = active
UBN1, technical replicate 2: viability, normalised (%) = 27.6; activity call = active
UBN1, technical replicate 3: viability, normalised (%) = 38.2; activity call = active
MAP3K15, technical replicate 1: viability, normalised (%) = 58.7; activity call = active
MAP3K15, technical replicate 2: viability, normalised (%) = 44.6; activity call = active
MAP3K15, technical replicate 3: viability, normalised (%) = 62.8; activity call = active
SMARCC1, technical replicate 1: viability, normalised (%) = 51.6; activity call = active
SMARCC1, technical replicate 2: viability, normalised (%) = 43.1; activity call = active
SMARCC1, technical replicate 3: viability, normalised (%) = 47; activity call = active
PDK1, technical replicate 1: viability, normalised (%) = 38.8; activity call = active
PDK1, technical replicate 1: viability, normalised (%) = 40.1; activity call = active
PDK1, technical replicate 2: viability, normalised (%) = 54.6; activity call = active
PDK1, technical replicate 2: viability, normalised (%) = 35.1; activity call = active
PDK1, technical replicate 3: viability, normalised (%) = 28.7; activity call = active
PDK1, technical replicate 3: viability, normalised (%) = 39.8; activity call = active
HIPK3, technical replicate 1: viability, normalised (%) = 53.7; activity call = active
HIPK3, technical replicate 2: viability, normalised (%) = 56.2; activity call = active
HIPK3, technical replicate 3: viability, normalised (%) = 60.8; activity call = active
PRDM14, technical replicate 1: viability, normalised (%) = 43.3; activity call = active
PRDM14, technical replicate 2: viability, normalised (%) = 46.9; activity call = active
PRDM14, technical replicate 3: viability, normalised (%) = 39.8; activity call = active

Copied from the entries so far, 2 entries:
PDK1, technical replicate 1: viability, normalised (%) = 38.8; activity call = active
PDK1, technical replicate 1: viability, normalised (%) = 40.1; activity call = active
